PubChem BioAssay AID2685 (National Center for Advancing Translational Sciences (NCATS), 2010)
This is one part of the list. Further columns of the screen follow, without active or inactive calls. Most of these compounds were active or inconclusive in the main read-out, so they are no random draw. Potencies come from curve fits of mixed quality, noted in brackets.

Assay: qHTS Assay for Lipid Storage Modulators in Drosophila S3 Cells;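 for cell number change: cells counted by Cell Tracker Red CMTPX staining in the red channel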
Conditions: BODIPY lipid droplet fluorescence, 18-24 h; for cell number change: measured here: cell count max response, cells fed with added oleic acid
Method in brief: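 Laser-scanning cytometry quantifies lipid droplet accumulation (500–530 nm total intensity; droplet/cell object ratio) in oleic acid-fed (400 uM added) Drosophila S3 cells treated with a concentration series. 20 uM Triacsin C defined 100% inhibition.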

[1] = measured here: cell number channel AC50, cells fed with added oleic acid
[2] = measured here: lipid fluorescence (Fed channel) AC50, cells fed with added oleic acid

## COc1ccc(C(CNC(=O)C(C)Oc2ccc(Br)cc2)N2CCCC2)cc1 (stereo not drawn)
  cell number change: 25%

## COc1ccc2c(c1)C(=O)N(c1ccccc1OC)C(=O)C2(C)C
  cell number change: 9.75%
[1]
  AC50: 0.116 µM [rising, full curve, poor fit]
[2]
  AC50: 0.206 µM [rising, full curve, poor fit]

## CN(c1ccccc1C(=O)Nc1cccc(Br)c1)S(=O)(=O)c1ccccc1
  cell number change: 4.92%

## C#CCOc1ccc2c(C)cc(=O)oc2c1
  cell number change: -12.1%
[2]
  AC50: 0.116 µM [rising, full curve, poor fit]

## COC(=O)C1=C(C)NC(=O)CC1c1cccc(Cl)c1Cl (stereo not drawn)
  cell number change: -40.2%
[1]
  AC50: 9.2 µM [falling, partial curve]
[2]
  AC50: 5.8 µM [falling, partial curve]

## Cc1ccc(S(=O)(=O)NCc2ccccc2)cc1C(=O)NCCc1ccc(S(N)(=O)=O)cc1
  cell number change: -5.78%
[2]
  AC50: 0.00461 µM [rising, full curve, poor fit]

## O=C(O)CCC(=O)c1ccc2c(c1)OCCO2
  cell number change: 11.8%

## Cc1csc(NC(=O)C2=COCCO2)n1
  cell number change: -26.9%

## NNC(=O)c1ccc([N+](=O)[O-])c(CS(=O)(=O)c2ccc(Cl)cc2)c1
  cell number change: -36.7%
[1]
  AC50: 5.17 µM [falling, full curve, poor fit]
[2]
  AC50: 29.1 µM [falling, single point]

## O=C(CSc1ccc(Cl)cc1)N1CCN(c2ncc(C(F)(F)F)cc2Cl)CC1
[2]
  AC50: 18.4 µM [rising, single point]

## CC(=O)OC1COC(N2CCc3cc([N+](=O)[O-])ccc32)C(OC(C)=O)C1OC(C)=O (stereo not drawn)
  cell number change: 21%
[2]
  AC50: 29.1 µM [rising, single point]

## CN(C)S(=O)(=O)c1cccc(NC(=S)NC(=O)c2ccco2)c1
  cell number change: -13.9%
[2]
  AC50: 3.26 µM [rising, partial curve, poor fit]

## Cc1c(Nc2cc(Cl)c3nonc3c2[N+](=O)[O-])c(=O)n(-c2ccccc2)n1C
  cell number change: -89.6%
[1]
  AC50: 14.6 µM [falling, partial curve]
[2]
  AC50: 4.61 µM [falling, partial curve]

## COc1cccc(C(=O)NNC(=O)C(=O)Nc2ccc(OC)cc2OC)c1
  cell number change: -7.69%

## COc1ccc(C2CC(=O)C=C(NCc3ccc4c(c3)OCO4)C2)cc1 (stereo not drawn)
  cell number change: 1.21%
[1]
  AC50: 0.58 µM [rising, full curve, poor fit]

## Cc1ccc(/C=N\NC(=O)c2csnn2)cc1
  cell number change: 0.69%

## CCCS(=O)(=O)N1CCN(C(=O)c2cc(OC)cc(OC)c2)CC1
  cell number change: 49.1%
[1]
  AC50: 23.1 µM [rising, single point]

## CCOC(=O)C1=C(CC)OC(N)=C(C#N)C1c1ccc(F)cc1F (stereo not drawn)
  cell number change: -38.4%
[1]
  AC50: 23.1 µM [falling, single point]
[2]
  AC50: 29.1 µM [falling, single point]

## CC(=O)Nc1c(C(=O)Nc2ccc3c(c2)OCO3)oc2ccccc12
  cell number change: -10.7%
[2]
  AC50: 1.46 µM [falling, partial curve]

## CCCCNC(=O)CC1N=C2c3ccccc3N=C(SCC(=O)Nc3ccccc3C)N2C1=O (stereo not drawn)
  cell number change: 114%
[1]
  AC50: 25.9 µM [rising, partial curve]
[2]
  AC50: 18.4 µM [rising, partial curve]

## C=CCc1c(C)nc(SCC(N)=O)[nH]c1=O
  cell number change: -42.5%
[2]
  AC50: 2.59 µM [rising, single point]

## CCOc1ccc(CNC(=S)Nc2ccccc2)cc1Cl
  cell number change: -48.1%
[1]
  AC50: 25.9 µM [falling, single point]
[2]
  AC50: 29.1 µM [falling, single point]

## Cc1cc(C(=O)CN2C(=O)NC(CC(C)C)C2=O)c(C)n1-c1ccccc1F (stereo not drawn)
  cell number change: 18%
[2]
  AC50: 0.00517 µM [falling, full curve, poor fit]

## CC(=O)CSc1ccc(-c2nc3ccccc3[nH]2)cn1
  cell number change: -41.6%
[1]
  AC50: 23.1 µM [falling, single point]
[2]
  AC50: 20.6 µM [falling, single point]

## O=C(Nc1ccc2c(c1)OCO2)c1ccc(S(=O)(=O)N2CCCC2)cc1
  cell number change: 15.8%
[2]
  AC50: 0.206 µM [rising, full curve, poor fit]

## CN(C(=O)CN1C(=O)S/C(=C\c2ccc(F)cc2)C1=O)C1CCS(=O)(=O)C1 (stereo not drawn)
  cell number change: 9.17%

## Cc1ccc(C(=O)N/N=C2\CCCc3ccccc32)c(C)c1
  cell number change: -4.75%
[2]
  AC50: 1.03 µM [rising, partial curve, poor fit]

## O=c1oc2ccccc2cc1-c1nc(-c2cccs2)cs1
  cell number change: -4.3%
[1]
  AC50: 6.51 µM [rising, single point]

## Cc1ccc2c(c1)OC(=O)CC2c1ccccc1 (stereo not drawn)
  cell number change: 3.46%
[2]
  AC50: 0.58 µM [falling, partial curve, poor fit]

## CCOc1ccc(Br)cc1CSC(=N)N
  cell number change: -19.1%
[2]
  AC50: 18.4 µM [falling, partial curve]

## COc1cc(CNCCN2CCOCC2)ccc1OCc1c(Cl)cccc1Cl
  cell number change: -0.617%
[2]
  AC50: 29.1 µM [falling, single point]

## CCOC(=O)CNC(=O)/C=C/c1ccc2c(c1)OCO2
  cell number change: 25.8%
[2]
  AC50: 29.1 µM [rising, single point]

## COc1ccc(-c2csc3ncn(Cc4ccccc4)c(=O)c23)cc1
  cell number change: -30.7%
[1]
  AC50: 14.6 µM [falling, single point]

## O=C(NC1CCCc2c1cnn2-c1cc(F)cc(F)c1)c1ccc[n+]([O-])c1 (stereo not drawn)
  cell number change: 16.3%
[2]
  AC50: 2.59 µM [rising, full curve]

## Cc1ccc(-n2c(SCC(=O)N(C)C)nnc2-c2ccco2)cc1
  cell number change: -26.4%
[2]
  AC50: 3.26 µM [rising, partial curve, poor fit]

## COc1ccc(CNC(=O)C2CCCN2S(=O)(=O)c2ccc(C)cc2)cc1 (stereo not drawn)
  cell number change: 103%
[1]
  AC50: 8.2 µM [rising, partial curve]
[2]
  AC50: 6.51 µM [rising, single point]

## c1ccc(-c2cnn3nnnc3n2)cc1
  cell number change: -8.15%

## CCOC(=O)N1CCN(C(=O)c2cccn3c(=O)c4cc(Cl)ccc4nc23)CC1
  cell number change: 1.72%

## NS(=O)(=O)c1cccc(NC(=O)CC(NC(=O)c2ccccc2Cl)c2ccccc2)c1 (stereo not drawn)
  cell number change: -22.5%
[2]
  AC50: 4.61 µM [falling, full curve]

## C/C(=N\NC(=S)NC(C)C)c1ccc(-n2ccnc2)cc1
[1]
  AC50: 0.184 µM [rising, full curve, poor fit]
[2]
  AC50: 0.13 µM [rising, full curve, poor fit]

## COc1ccc(NS(=O)(=O)c2ccc3[nH]c(=O)[nH]c3c2)cc1
  cell number change: 2.59%
[2]
  AC50: 3.66 µM [rising, single point]

## Cc1nn(Cc2cccc(F)c2)c(C)c1NC(=O)c1c([N+](=O)[O-])c(C)nn1C
  cell number change: 55.5%
[1]
  AC50: 0.0461 µM [rising, full curve]
[2]
  AC50: 0.0651 µM [rising, full curve, poor fit]

## N#C/C(=C\c1ccc(-c2ccc([N+](=O)[O-])cc2)o1)C(=O)Nc1nc(-c2cccs2)cs1
  cell number change: 6.43%

## Cc1ccc(-c2nn(CC(=O)N(C)C)c(=O)c3ccccc23)cc1S(=O)(=O)N(C)C
  cell number change: 89.6%
[1]
  AC50: 29.1 µM [rising, single point]

## O=C(CCC(=O)NNC(=O)COc1ccc(Br)cc1Br)NCc1ccccc1
  cell number change: -29.4%
[2]
  AC50: 18.4 µM [falling, single point]

## CC(C)c1nc(NCCO)c(C#N)c2c1CCCC2
  cell number change: -29.4%
[2]
  AC50: 18.4 µM [falling, partial curve]

## CCOC(=O)c1c(C)nc2c(c1-c1cc(OC)ccc1OC)C(=O)c1ccccc1-2
[1]
  AC50: 2.91 µM [rising, partial curve]
[2]
  AC50: 2.59 µM [rising, partial curve]

## Cc1ccc(S(=O)(=O)CCC(=O)OCC(=O)NC(C)c2ccc(F)cc2)cc1 (stereo not drawn)
  cell number change: -3.48%
[2]
  AC50: 0.651 µM [falling, full curve, poor fit]

## O=C(COC(=O)CCc1nc2ccccc2s1)Nc1ccc(S(=O)(=O)N2CCOCC2)cc1
  cell number change: 2.32%
[2]
  AC50: 6.51 µM [rising, single point]

## O=C(OC1CCCCC1)c1cc2ccccc2oc1=O
  cell number change: 1.42%
[2]
  AC50: 9.2 µM [falling, partial curve]

## COc1ccc(/C=C(\NC(=O)c2cccs2)C(=O)Nc2ccc(C)cc2)cc1OC
  cell number change: -82%
[1]
  AC50: 1.3 µM [falling, full curve]
[2]
  AC50: 1.84 µM [falling, full curve]

## Cc1nn(Cc2ccccc2)c2c1C(c1cccnc1)C(C#N)=C(N)O2 (stereo not drawn)
  cell number change: 26.4%
[2]
  AC50: 0.82 µM [rising, full curve, poor fit]

## O=[N+]([O-])c1nn(-c2ccc(Cl)cc2)n(O)c1=NCc1ccncc1
  cell number change: 42.4%
[1]
  AC50: 10.3 µM [rising, partial curve]
[2]
  AC50: 14.6 µM [rising, partial curve]

## CO/N=C/NC(=O)c1c(OC)ccnc1Oc1ccccc1
  cell number change: -8.65%
[2]
  AC50: 16.4 µM [rising, single point]

## N#Cc1ccccc1Sc1ccccc1C(=O)OCC(=O)N1CCN(C(=O)c2ccco2)CC1
  cell number change: 9.47%

## Cc1cc2nn(-c3cccc4ccccc34)nc2cc1NC(=O)c1cccs1
  cell number change: -17.6%
[2]
  AC50: 13 µM [falling, single point]

## O=C(Nc1ccc2c(c1)OCCO2)C1CCN(S(=O)(=O)Cc2ccccc2)CC1
  cell number change: -2.36%
[2]
  AC50: 14.6 µM [rising, single point]

## O=C1CCCN1CN(C(=O)c1ccccc1)c1ccc(F)cc1
  cell number change: 15.8%
[2]
  AC50: 4.11 µM [falling, single point]

## CCCSc1ccc([C@@H]2[C@H]3C(=O)N(CC)C(=O)[C@H]3[C@]3(C(=O)OC)CCCN23)cc1
  cell number change: 17.6%
[2]
  AC50: 29.1 µM [rising, single point]
